Laboratory results taken from publication PMC11187941.
These are yes or no findings as the source states them, for the method shown. In cells and extracts the contact can be indirect. Some results given as binding are weak or reduced against the parent protein; the word gives no strength.

By UniProt entry, the sequences of proteins in these tests, tags left out.
UniProt Q920B6: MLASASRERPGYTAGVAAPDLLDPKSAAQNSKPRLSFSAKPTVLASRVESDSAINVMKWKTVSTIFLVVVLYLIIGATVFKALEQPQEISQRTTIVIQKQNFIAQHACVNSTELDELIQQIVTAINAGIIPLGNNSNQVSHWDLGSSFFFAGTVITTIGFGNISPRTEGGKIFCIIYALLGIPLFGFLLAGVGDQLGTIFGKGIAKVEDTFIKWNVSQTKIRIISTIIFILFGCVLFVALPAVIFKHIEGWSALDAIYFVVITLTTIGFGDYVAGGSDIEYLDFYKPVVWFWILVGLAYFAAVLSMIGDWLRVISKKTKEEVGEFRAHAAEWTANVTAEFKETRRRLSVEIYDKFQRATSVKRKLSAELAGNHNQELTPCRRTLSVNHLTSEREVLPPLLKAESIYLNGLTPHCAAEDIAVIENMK
UniProt Q9JIS4: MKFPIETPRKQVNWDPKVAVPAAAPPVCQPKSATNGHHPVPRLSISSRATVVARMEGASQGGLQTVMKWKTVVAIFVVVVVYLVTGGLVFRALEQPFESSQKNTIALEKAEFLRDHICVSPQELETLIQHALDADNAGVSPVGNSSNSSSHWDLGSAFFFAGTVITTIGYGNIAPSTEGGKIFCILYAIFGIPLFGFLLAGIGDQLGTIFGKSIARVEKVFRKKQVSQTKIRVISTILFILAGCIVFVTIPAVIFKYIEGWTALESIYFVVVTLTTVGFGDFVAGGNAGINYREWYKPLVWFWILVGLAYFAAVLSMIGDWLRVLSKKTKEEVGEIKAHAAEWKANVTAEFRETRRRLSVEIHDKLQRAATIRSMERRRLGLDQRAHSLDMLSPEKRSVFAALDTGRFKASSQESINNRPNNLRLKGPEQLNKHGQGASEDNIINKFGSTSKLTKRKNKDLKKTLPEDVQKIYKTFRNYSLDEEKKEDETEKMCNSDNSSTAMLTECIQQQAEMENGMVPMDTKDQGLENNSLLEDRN

Biological target: T1, Sortilin (rat (endogenous in DRG)) (UniProt O54861)
T1 sequence: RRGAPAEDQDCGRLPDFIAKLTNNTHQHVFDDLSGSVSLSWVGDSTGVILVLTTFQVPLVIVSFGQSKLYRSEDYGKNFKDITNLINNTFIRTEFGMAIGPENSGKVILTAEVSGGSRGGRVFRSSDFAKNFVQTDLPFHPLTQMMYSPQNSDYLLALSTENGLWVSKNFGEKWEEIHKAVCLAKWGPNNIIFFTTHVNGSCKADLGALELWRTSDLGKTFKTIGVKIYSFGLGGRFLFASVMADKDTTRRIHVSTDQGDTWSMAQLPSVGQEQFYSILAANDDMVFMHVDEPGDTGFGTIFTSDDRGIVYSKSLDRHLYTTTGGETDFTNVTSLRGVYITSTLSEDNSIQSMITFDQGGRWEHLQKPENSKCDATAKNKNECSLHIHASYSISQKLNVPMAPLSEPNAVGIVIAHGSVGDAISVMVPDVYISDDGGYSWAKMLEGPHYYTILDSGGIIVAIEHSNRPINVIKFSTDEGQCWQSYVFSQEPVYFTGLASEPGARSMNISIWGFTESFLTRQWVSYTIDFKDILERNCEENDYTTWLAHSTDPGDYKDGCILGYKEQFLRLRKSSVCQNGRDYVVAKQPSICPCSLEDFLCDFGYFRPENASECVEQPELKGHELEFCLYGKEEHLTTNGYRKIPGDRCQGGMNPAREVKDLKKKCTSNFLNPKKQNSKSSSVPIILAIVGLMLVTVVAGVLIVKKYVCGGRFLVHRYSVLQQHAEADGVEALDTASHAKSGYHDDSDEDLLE
Assay: co-IP; DRG lysates of prediabetic (high-energy diet) and control rats; Pierce Classic IP Kit; supernatants incubated with the Sortilin antibody at 4 °C overnight; immune complex analysed by western blot for TREK1 and TREK2

binding | Substance
binds | TREK1 (K2P2.1) channel (from UniProt Q920B6 1-426)
binds | TREK2 (K2P10.1) channel (from UniProt Q9JIS4 1-538)
